A short description of experiment [1]: wild-type E. coli growth inhibition versus h38 humanized strain – h38 mutant RFP, wild-type GFP, cherry-pick, dose response (AID 977622). Particulars: E. coli mixed culture, 24 h, total growth OD600 at 50 uM.
Experiment [2] concerns E. coli h38 humanized mutant ribosome RFP fluorescence, mixed culture, 24 h. Described as above. Conditions: h38 mutant RFP at 50 uM.

Some of the results follow. These are further read-outs of the screen, such as a control signal, another cell line or another target. No call is given for them.

With `CCOC(=O)c1cc2sccc2n1CCCN1C(=O)c2ccccc2C1=O`, the activity change in experiment [1] is -53.1%.

As for `Cc1ccc(N(CC(O)Cn2nc(C)cc2C)S(=O)(=O)c2ccc3ccccc3c2)cc1` (stereo not drawn), the activity change in experiment [1] was -55.4%; in experiment [2], 6.81%. Take `CC1CCN(CC(O)COCCC23CC4CC(CC(C4)C2)C3)CC1` (stereo not drawn): the activity change in experiment [2] was -37.2%. In the case of `O=C(CCCOc1ccc(Cl)cc1Cl)Nc1ccccc1C(=O)O`, the activity change in experiment [1] is -63.8%; in experiment [2], -2.49%.

On to `Cc1nc(-c2ccc([N+](=O)[O-])cc2)c(-c2ccccc2)o1`, for which the activity change in experiment [1] is -11.2%; in experiment [2], -31.7%. `O=C(NCc1ccccc1Cl)[C@H]1CCCN1C(=O)[C@H]1CCCN1C(=O)c1cccc2ccccc12`: the activity change in experiment [1] is -40.8%; in experiment [2], -2.66%.

Turning to `CC(C)CNC(=O)c1cccc(NC(=O)C(C)Oc2ccccc2)c1` (stereo not drawn), the activity change was -14% in experiment [1] and -22.7% in experiment [2]. On to `C[C@@H]1CCCCO[C@H](CN(C)CC2CC2)[C@H](C)CN([C@@H](C)CO)C(=O)c2cc(NC(=O)Nc3cccc4ccccc34)ccc2O1`, for which the activity change in experiment [1] was -98.9%; in experiment [2], -54.1%. As for `Cc1nn2c(NCc3ccccn3)cc(C(C)C)nc2c1-c1ccccc1`, the activity change in experiment [1] is -32.3%.

For `COc1ccc(-c2nc3c(C)cc(Br)cn3c2Cc2ccc(C)cc2)cc1OC`, the activity change was -49.7% in experiment [1] and 17.7% in experiment [2]. Turning to `O=C(C[C@H]1CC[C@@H]2[C@H](COC[C@H](O)CN2C(=O)Nc2ccc(Cl)cc2)O1)NCC1CC1`, the activity change in experiment [1] was -83.1%; in experiment [2], 45.4%. The like results for `CN1c2ccc(C#Cc3cccnc3)cc2[C@@H]2[C@@H](CCN2C(=O)c2cccc(F)c2)[C@H]1CO` were, in that order, -43.9% and -22.2%. `Cc1nc2ncnn2c(N2CCC(C(=O)NC3CCCC3)CC2)c1Cc1ccccc1`: the activity change in experiment [1] is -28.8%; in experiment [2], -38.5%. For `C[C@@H]1CCCCO[C@@H](CN(C)C(=O)CCCN(C)C)[C@H](C)CN([C@H](C)CO)C(=O)c2cc(NC(=O)Nc3cccc4ccccc34)ccc2O1`, the activity change in experiment [1] was -10.7%; in experiment [2], 9.41%. For the compound `CCc1cccc2c1Sc1ccccc1CC2N1CCNCC1` (stereo not drawn), the activity change in experiment [1] was -98.9%; in experiment [2] it was -64.4%. For the compound `C[C@@H]1CCCCO[C@H](CN(C)CC2CCCCC2)[C@H](C)CN([C@@H](C)CO)C(=O)c2cc(NC(=O)Nc3cccc4ccccc34)ccc2O1`, the activity change is -67.7% in experiment [1] and 142% in experiment [2]. As to `Cc1nn(-c2ccccc2)c(C)c1NC(=O)COc1ccc2ccccc2c1`, the activity change in experiment [1] was -58.4%. Take `COC(=O)CN1C(=S)N(c2ccc(Cl)cc2)C(=O)C1CC(=O)Nc1ccc(F)cc1` (stereo not drawn): the activity change is -43.6% in experiment [1] and -30.4% in experiment [2].

Consider `O=[N+]([O-])c1ccc(O)c(CSc2nnnn2-c2ccccc2)c1`, for which the activity change was -4.26% in experiment [1] and 33.4% in experiment [2]. For `O=C(COn1nnc2ccc(C(F)(F)F)cc21)Nc1c(Cl)cccc1Cl`, the values for the activity change in experiment [1] and in experiment [2] were -31.7% and 22.2%, respectively. Turning to `Cc1ccc(CNC(=O)c2ccc(Br)o2)cc1`, the activity change in experiment [1] was -40.7%; in experiment [2] it was 56.4%. The like results for `O=S(=O)(Nc1ccc(-c2cnco2)cc1)c1ccccc1` were, in that order, -28.2% and -8.88%. Take `O=C1c2ccccc2S(=O)(=O)c2cc(N3CCC(C(=O)N4CCCCC4)CC3)ccc21`: the activity change in experiment [1] is -34.2%; in experiment [2], -22.3%. Take `Cc1cccc(-c2noc(-c3ccccc3C(=O)NCc3ccco3)n2)c1`: the activity change in experiment [1] is -20.6%; in experiment [2], -11.2%. As for `CCCC[n+]1ccn(-c2nc3ccccc3nc2[N-]S(=O)(=O)c2cccs2)c1`, the activity change in experiment [1] is -21.8%; in experiment [2] it was 23.6%.

In the case of `COC(=O)c1cc2ccccc2n1S(=O)(=O)c1ccccc1`, the activity change in experiment [1] was -25.6%; in experiment [2], -16.3%.

On to `COc1ccccc1CNC(=O)c1cc2sccc2n1C`, for which the results for the activity change in experiment [1] and in experiment [2] were -31.5% and 10.1%, respectively. In the same order, the values of `CCCCNC(=O)c1cc2c(C)cc(C)cc2[nH]1` are -41.2% and 22.6%. The like results for `CN(C)CCCN(C(=O)COc1ccc(Cl)cc1)c1nc2ccc(F)cc2s1` were, in that order, -13.8% and -14.6%. `NS(=O)(=O)c1cccc(NC(=O)CSc2nc3ccccc3n2-c2ccccc2)c1`: the activity change in experiment [1] was -66.3%; in experiment [2], -32.2%. `O=C(c1cnc(Cc2c[nH]c3ccccc23)c(I)c1)N1CCCCC1`: the figures for the activity change in experiment [1] and in experiment [2] were -66.9% and -28.3%, respectively. In the same order, the values of `O=[N+]([O-])c1ccc2nc(-c3ccccc3[N+](=O)[O-])[nH]c2c1` are -22.8% and -33.3%. In the same order, the values of `O=S(=O)(NCc1cc(-c2ccccc2)no1)c1ccccc1Cl` are 6.16% and -36.8%. On to `COc1cccc(S(=O)(=O)N2CCCCN3[C@@H](CO)[C@H](c4ccc(C#CC(C)C)cc4)[C@@H]3C2)c1`, for which the activity change was -96.9% in experiment [1] and -45.6% in experiment [2].

In the case of `O=C(CN1c2ccccc2S(=O)(=O)c2ccccc21)NCc1ccc(F)cc1`, the activity change in experiment [1] is -37.4%; in experiment [2], 1.24%. In the case of `Cc1ccc(C#CC[N+](C)(C)CC#Cc2ccccc2)cc1`, in experiment [1], the activity change is -40.9%. For `O=C(O)c1ccc2c(c1)N(Cc1ccc(F)cc1)C(=O)c1ccccc1S2`, the activity change is -38.9% in experiment [1] and -0.437% in experiment [2]. In the case of `C[C@@H]1CN([C@@H](C)CO)C(=O)c2cc(NC(=O)Nc3cccc4ccccc34)ccc2O[C@@H](C)CCCCO[C@H]1CN(C)C(=O)CCCN(C)C`, the activity change in experiment [1] is 0.911%; in experiment [2] it was 9.37%. Regarding `NS(=O)(=O)c1ccc(NC(=O)CCC(=O)O)cc1`, the activity change in experiment [1] worked out at 6.36%. As to `CC(C)c1cc(C(N)=O)c(NC(=O)C2CCC2)s1`, the activity change in experiment [1] is -35.6%; in experiment [2] it was -21.6%. On to `O=C(Nc1nc2ccccc2n1CCN1CCOCC1)c1ccccc1`, for which the activity change in experiment [1] was -18.4%; in experiment [2], 4.35%. Take `O=C(Nc1cccc(Cl)c1)N1C[C@H]2[C@@H](c3ccccc31)[C@H](CO)N2CC1CCCCC1`: the activity change in experiment [1] was -77.8%; in experiment [2] it was 69.3%.

For the origin of these results see PubChem BioAssay AID977622 (Broad Institute, 2014).
